# Measurements from patent US11453640B2, “Small molecules for disrupting the super elongation complex and inhibiting transcription elongation for cancer therapy” (NORTHWESTERN UNIVERSITY, priority 2018, dated 2022).
# At least one compound was matched to its structure with a doubt left.
# What was measured:
# Pol II = assay: 4sU-FP-seq measurement of Pol II transcription elongation rate in HEK293T cells; type: cell-based, human; settings: 20 μM pretreatment 5 hr, HMM analysis, 982 genes
# Description: FIG. 4. Small molecule disruption of SEC slows Pol II elongation rates. (A) Workflow of 4sU-FP-seq based measurement of the transcription elongation rate of RNA Pol II. HEK293T cells were pretreated with vehicle or 20 μM SEC inhibitors for 5 hr before addition of the CDK9 inhibitor flavopiridol for 1 hr to arrest Pol II at the promoter-proximal pause site. Inhibitors are washed out with PBS before allowing transcription to proceed in the presence of with fresh medium containing 500 μM 4-Thiouridine (4sU) for 15 min. The 4sU-labeled RNA is then extracted and fragmented before purification, and followed with RNA-seq. (B) Genome browser tracks of 4sU-FP-seq for vehicle and SEC inhibitor-treated cells at the ACTN2 and MTR loci. […] (C) Heatmap analysis of 4sU-FP-seq in vehicle and the indicated SEC inhibitors in HEK293T cells. All genes longer than 50 kb (N=5,568) were plotted and ordered using the total 4sU-FP-seq signals in the vehicle-treated cells. (D) Metaplot of strand-specific 4sU-FP-seq signals in vehicle and SEC inhibitors-treated cells. […] Raw changes in 4sU-FP-seq read counts in non-overlapping 50 bp windows used to infer elongation rates for the MTR gene. […] (F-G) Histograms (F) and boxplots (G) comparing the transcription elongation rates for 982 genes in HEK293T cells for which high confidence elongation rates could be determined. […]
# [1] = system: heat shock responsive genes in Drosophila S2 cells; assay: Heat shock induction in Drosophila S2 cells; type: cell-based; settings: 20 μM
# Description: FIG. 5. SEC inhibitors block transcription elongation in SEC-dependent rapid response models. (A-B) Genome browser tracks of Pol II ChIP-seq at the FOS, HSPD1 and HSPE1 genes after 1 hr heat shock of HCT-116 cells treated with vehicle (DMSO) or the indicated SEC inhibitors. HCT-116 cells were pretreated with inhibitors for 5 hr at 37° C. before exchanging medium with conditioned 42° C. medium. Dark and light colors indicate the 37 and 42° C. conditions, respectively. (C) Genome-wide identification of heat shock-induced genes with fold change of reads per million in gene bodies and pausing index. Red dots are the 136 heat shock-induced genes according to Pol II signals (fold change of reads per million in gene bodies >1.5 and pausing index decreased >1.5-fold in the DMSO-treated condition). […] Box plot analysis depicts the log2 fold changes of reads per million in gene bodies (E) (y axis) after heat shock with pretreatment of vehicle or SEC inhibitors. […] S2 cells were heat shocked at 37° C. with and without 20 μM SEC inhibitors for 6 hr (left panel). The statistical analysis was performed with the Wilcoxon test.
# Heat Shock Induction. Heat shock of mammalian cells was performed using ˜70-80% confluent HCT-116 cells by adding pre-heated (42° C.) conditioned media collected from identically growing cells (Mahat et al., 2016b). The heat shock cells were incubated at 42° C. for 1 hour. […]
# MDA231-LM2 cells = assay: Colony formation of MDA231-LM2 cells in vitro; type: cell-based; settings: 5 days
# Description: FIG. 14, related to FIG. 7. SEC disruptors delay tumor progression and improve survival of MDA231-LM2 tumor mice. (A) KL-1 and KL-2 inhibit the colony formation of MDA231-LM2 cells in vitro. 5×10^3 MDA231-LM2 cells were seeded in 6-well plates and treated with KL-1 or KL-2 at the indicated doses for 5 days. Crystal violet staining was performed to stain the colonies. (B) KL-1 and KL-2 induce apoptosis in MDA231-LM2 cells. Bar graph depiction of Annexin V positive MDA231-LM2 cells after 24 hr of KL-1 and KL-2 treatments at the indicated concentrations. Data are represented as Mean+/−SD. […] Each individual line indicates the weights of each mouse during toxicity test.
structure (smiles),measurement,setting,value
"Cc1ccc(Cl)cc1NC(=O)C(=O)CC(=O)c1ccc(F)cc1 [KL-2, N-(5-chloro-2-methylphenyl)-4-oxo-(4-fluorophenyl)-2-oxobutanamide]",elongation rate of Pol II,Pol II,decreased the elongation rate of Pol II
same,heat shock induction of the 215 heat shock responsive genes,[1],attenuated heat shock induction
same,colony formation capability,MDA231-LM2 cells,could inhibit the colony formation capability
